Data on two molecules can be found in paper PMC9867315, “Enhanced Cytotoxic Activity of PEGylated Curcumin Derivatives: Synthesis, Structure–Activity Evaluation, and Biological Activity” (International Journal of Molecular Sciences, 2023).

For the data set, the system named is 5637 cells. The experiment in a line: Cellular uptake by flow cytometry (fluorescence). It counts as cell-based, human. The following applies: 5637, 10 µM; for positive cells (cellular uptake): medium with FBS.

On to `COCCOCCOCCOc1ccc(/C=C/C(=O)/C=C(O)/C=C/c2ccc(OCCOCCOCCOC)c(OC)c2)cc1OC` [Compound 5, (1E,4Z,6E)-5-hydroxy-1,7-bis(3-methoxy-4-{2-[2-(2-methoxyethoxy)ethoxy]ethoxy}phenyl)-hepta-1,4,6-trien-3-one], for which the “fluorescence (cellular uptake) in the medium without FBS” value (8 h, 0% FBS) was “diminished”. Moreover, the “positive cells (cellular uptake)” value (8 h) worked out at 36%.
As to “(1E,4Z,6E)-5-hydroxy-1,7-bis (3-methoxy-4-hydroxyphenyl)-hepta-1,4,6-trien-3-one [Curcumin (11), reference compound]”, the “positive cells (cellular uptake)” value by setting is: (0.5 h) “approximately 30%”; (2 h) 80–90%; (4 h) 80–90%.
